Measured data: PubChem BioAssay AID743121 (NCATS, 2013)
Shown is one part, drawn at random, of about 26,000 reagents tested. Of all reagents, 167 (0.63%) were called active. 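Calls are per gene from RSA p-values that are not deposited; an individual active-marked siRNA can sensitise only weakly.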 Unmarked entries are inactive. Reagents against one gene are numbered here. Further read-outs or replicates are left out here.

Test: 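Partners whose loss is lethal together with topoisomerase I blockade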 (primary screen)
System: MDA-MB-231 cells, a human breast cancer line
Reagents: single siRNA against human genes, 20 nM siRNA (0.8 pmol per well)
Duration: 120 h (drug added 48 h after transfection, read 72 h later)
Treatment: camptothecin 20 nM (about EC30) for 72 h; vehicle 0.1% DMSO in parallel plates
Measurement: 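Cell viability by ATP luminescence (CellTiter-Glo) as % of non-targeting siRNA wells, and the log2 ratio of viability without drug over viability with camptothecin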
Direction: log2 vehicle/camptothecin viability: higher = stronger sensitisation to camptothecin; viability with camptothecin: higher = more viable cells
Units: viability with camptothecin in % of control
Rule for the call: 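Active genes have an RSA gene-level p-value below 0.001, computed from the ratios of their separate siRNAs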

With knock-down of DDC (GeneID 1644) #1, the record shows log2 vehicle/camptothecin viability -0.241; viability with camptothecin 68.7. Silencing of DDC (GeneID 1644) #2 resulted in: log2 vehicle/camptothecin viability 0.0728; viability with camptothecin 39.6. With knock-down of DDC (GeneID 1644) #3, the record shows log2 vehicle/camptothecin viability -0.149; viability with camptothecin 47.3. With knock-down of DDC (GeneID 1644) #4, the screen gave log2 vehicle/camptothecin viability -0.512; viability with camptothecin 72.9. With knock-down of CCL1 (GeneID 6346) #1, the screen gave log2 vehicle/camptothecin viability -0.486; viability with camptothecin 51.1. Against CCL1 (GeneID 6346) #2 the deposit lists log2 vehicle/camptothecin viability -0.173; viability with camptothecin 78.1.

CCL1 (GeneID 6346) #3 scored log2 vehicle/camptothecin viability -0.728; viability with camptothecin 98. With knock-down of CCL1 (GeneID 6346) #4 the results were log2 vehicle/camptothecin viability 0.614; viability with camptothecin 37.6. Silencing of CYP2A6 (GeneID 1548) #1 came out at: log2 vehicle/camptothecin viability 0.216; viability with camptothecin 49.7. For CYP2A6 (GeneID 1548) #2, the entry reads log2 vehicle/camptothecin viability -0.476; viability with camptothecin 77.8. CYP2A6 (GeneID 1548) #3 showed log2 vehicle/camptothecin viability -0.0225; viability with camptothecin 83.3. Against CYP2A6 (GeneID 1548) #4, the values are log2 vehicle/camptothecin viability -0.204; viability with camptothecin 67.1.

PHIP (GeneID 55023) #1 showed log2 vehicle/camptothecin viability -0.168; viability with camptothecin 86.7. Knock-down of PHIP (GeneID 55023) #2 resulted in: log2 vehicle/camptothecin viability -0.114; viability with camptothecin 36.2. PHIP (GeneID 55023) #3 scored log2 vehicle/camptothecin viability -0.00514; viability with camptothecin 60.2. For PHIP (GeneID 55023) #4, the entry reads log2 vehicle/camptothecin viability -0.0822; viability with camptothecin 122. EPHA8 (GeneID 2046) #1 scored log2 vehicle/camptothecin viability -0.391; viability with camptothecin 86.9. EPHA8 (GeneID 2046) #2 showed log2 vehicle/camptothecin viability 0.076; viability with camptothecin 63.8.

For EPHA8 (GeneID 2046) #3 the deposit lists log2 vehicle/camptothecin viability -0.0899; viability with camptothecin 93.9. EPHA8 (GeneID 2046) #4 showed log2 vehicle/camptothecin viability -0.306; viability with camptothecin 138. After knock-down of EPHA8 (GeneID 2046) #5, the screen gave log2 vehicle/camptothecin viability 0.254; viability with camptothecin 52.1. EPHA8 (GeneID 2046) #6 scored log2 vehicle/camptothecin viability 1.63; viability with camptothecin 10.7. Knock-down of EPHA8 (GeneID 2046) #7 came out at: log2 vehicle/camptothecin viability -0.241; viability with camptothecin 91.5. Silencing of EPHA8 (GeneID 2046) #8 resulted in: log2 vehicle/camptothecin viability -0.212; viability with camptothecin 101.

HCAR3 (GeneID 8843) #1 gave log2 vehicle/camptothecin viability -0.296; viability with camptothecin 89.9. For HCAR3 (GeneID 8843) #2, the values are log2 vehicle/camptothecin viability -0.0822; viability with camptothecin 139. With knock-down of HCAR3 (GeneID 8843) #3, the record shows log2 vehicle/camptothecin viability -0.0876; viability with camptothecin 76.8. HCAR3 (GeneID 8843) #4 scored log2 vehicle/camptothecin viability -0.258; viability with camptothecin 100. KCNA3 (GeneID 3738) #1 scored log2 vehicle/camptothecin viability 0.105; viability with camptothecin 102. With knock-down of KCNA3 (GeneID 3738) #2, the screen gave log2 vehicle/camptothecin viability -0.437; viability with camptothecin 85.8.

Silencing of KCNA3 (GeneID 3738) #3 resulted in: log2 vehicle/camptothecin viability 0.0832; viability with camptothecin 77.8. Knock-down of KCNA3 (GeneID 3738) #4 gave: log2 vehicle/camptothecin viability -0.297; viability with camptothecin 103. TMPRSS13 (GeneID 84000) #1 gave log2 vehicle/camptothecin viability 0.3; viability with camptothecin 9.63. TMPRSS13 (GeneID 84000) #2 showed log2 vehicle/camptothecin viability 0.262; viability with camptothecin 43.8. With knock-down of TMPRSS13 (GeneID 84000) #3 the results were log2 vehicle/camptothecin viability 0.496; viability with camptothecin 26.3. For TMPRSS13 (GeneID 84000) #4 the deposit lists log2 vehicle/camptothecin viability -0.21; viability with camptothecin 49.2.

4 entries already listed, sorted by “log2 vehicle/camptothecin viability”, lowest first.
KCNA3 (GeneID 3738) #4: log2 vehicle/camptothecin viability = -0.297; viability with camptothecin = 103
KCNA3 (GeneID 3738) #3: log2 vehicle/camptothecin viability = 0.0832; viability with camptothecin = 77.8
TMPRSS13 (GeneID 84000) #2: log2 vehicle/camptothecin viability = 0.262; viability with camptothecin = 43.8
TMPRSS13 (GeneID 84000) #1: log2 vehicle/camptothecin viability = 0.3; viability with camptothecin = 9.63
